Assay results reported in PubChem BioAssay AID328 (DTP/NCI, 2004).
The list shows only some results of the screen, not a fair sample: it gathers tests that were run many times, whatever their T/C, doses with no T/C, and many T/C values between a quarter and a half above the control. Further doses and runs are listed elsewhere. T/C is the treated group as % of the vehicle group. Some doses have a count of surviving animals in place of a T/C: the source holds a T/C of zero for them, seemingly a mark for toxic or unscored doses. Some doses without a T/C left all or most animals alive at the check, yet need not have been tolerated: the source hardly ever lists a survival T/C far under the control, and the zero likely stands for such cases as well. Counts of survivors are from the toxicity check (mostly the fifth day) where no day follows; animals may have died later. Schedules are NCI's codes, read here as Q, the interval in days (D) or hours (H), X, the number of doses. Some entries were tested several times; the results are listed from low to high. Where survival is the endpoint, the PubChem record calls one and a half times the control and up active, and a quarter to a half above the control has no call in these data; cut-offs in other NCI protocols can differ. Some T/C values are followed by the survivors on the day toxicity was checked, most often the fifth; where none is given, no animal had died by that day.

Test system: BDF1 mice, P388 leukemia ip, median survival T/C
Assay: NCI In Vivo Anticancer Drug Screen. Data for tumor model P388 Leukemia (intraperitoneal) in B6D2F1 (BDF1) mice
Details: T/C endpoint: median survival time, higher T/C = longer survival
Outline: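 Steps: implant the tumour, treat one group with compound and another with vehicle, record survival, then divide treated by control.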

[1] = dose: 100.0 mg/kg/injection, schedule: Q04DX003 (ip), vehicle: saline with Tween-80
[2] = dose: 50.0 mg/kg/injection, schedule: Q01DX009 (ip), vehicle: saline
[3] = dose: 100.0 mg/kg/injection, schedule: Q04DX003 (ip), vehicle: Klucel (hydroxypropylcellulose) (HPC)
[4] = dose: 100.0 mg/kg/injection, schedule: Q01DX009 (ip), vehicle: saline
[5] = dose: 150.0 mg/kg/injection, schedule: Q01DX009 (ip), vehicle: saline with Tween-80
[6] = dose: 100.0 mg/kg/injection, schedule: Q01DX009 (ip), vehicle: saline with Tween-80
[7] = dose: 50.0 mg/kg/injection, schedule: Q04DX003 (ip), vehicle: saline
[8] = dose: 100.0 mg/kg/injection, schedule: Q04DX003 (ip), vehicle: saline
[9] = dose: 400.0 mg/kg/injection, schedule: Q01DX009 (ip), vehicle: saline with Tween-80

For CC1=CC(C)(C)Nc2ccc(CSc3ccccc3)cc21, the survivor count (dose: 400.0 mg/kg/injection, schedule: Q01DX009 (ip), vehicle: saline + alcohol) was 0 of 6.

With CCC1(C)CCC2=C(CCC3C(C)(C(=O)O)CCCC23C)C1 (stereo unspecified) the survivor count [1] was 6 of 6.

In the case of CC(C)CCCC(C)C1CCC2C3CC=C4CC([S+](C)C)CCC4(C)C3CCC12C (stereo unspecified), the survivor count [2] is reported as 6 of 6.

For CS(=O)(=O)OCC(=O)NCC(O)CNC(=O)COS(C)(=O)=O, the T/C (dose: 118.0 mg/kg/injection, schedule: Q04DX003 (ip), vehicle: saline with Tween-80) was 146 % of control and the T/C (dose: 600.0 mg/kg/injection, schedule: Q04DX003 (ip), vehicle: saline with Tween-80) was 136 % of control.

For COc1cc(C=Nc2ccc(-c3nc(C)sc3C)cc2)ccc1N(CCCl)CCCl, the survivor count (dose: 50.0 mg/kg/injection, schedule: Q04DX003 (ip), vehicle: Klucel (hydroxypropylcellulose) (HPC)) was 5 of 6 and the survivor count [3] was 0 of 6.

C=C1C(=O)OC2/C=C(\C)CC(O)/C=C(\C)CC(OC(=O)/C(=C\C)COC(C)=O)C12 (stereo unspecified) was tested, and the T/C (dose: 30.0 mg/kg/injection, schedule: Q01DX009 (ip), vehicle: saline) was 145 % of control and the survivor count [4] was 4 of 6.

For CNC(C)(C)CO, the survivor count (dose: 400.0 mg/kg/injection, schedule: Q01DX009 (ip), vehicle: saline) was 1 of 6.

For CCN1CSC(=S)N(CC)C1, the survivor count [3] was 5 of 6 and the survivor count [5] was 3 of 6.

In the case of O=C(O)c1[nH]c(=O)[nH]c(=O)c1F, the T/C (dose: 1.25 mg/kg/injection, schedule: Q01DX010 (ip), vehicle: saline) is reported as 142 % of control and the T/C (dose: 5.0 mg/kg/injection, schedule: Q01DX010 (ip), vehicle: saline) is reported as 142 % of control.

For CCN1C(=O)Nc2ccc(Cl)cc2C1(O)c1ccccc1 (stereo unspecified), the survivor count [6] was 6 of 6.

With C=CCN1C(=O)C=CC1=O the T/C (dose: 1.5 mg/kg/injection, schedule: Q01DX009 (ip), vehicle: saline) was 133 % of control and the survivor count (dose: 6.0 mg/kg/injection, schedule: Q01DX009 (ip), vehicle: saline) was 5 of 6.

For CN(Cc1ccc(Nc2ccccc2)cc1)C1CCCCC1, the T/C (dose: 200.0 mg/kg/injection, schedule: Q01DX009 (ip), vehicle: other) was 142 % of control.

For Cn1cnc([N+](=O)[O-])c1Sc1nc(N)nc2c1ncn2C1OC(CO)C(O)C1O (stereo unspecified), the T/C (dose: 9.2 mg/kg/injection, schedule: Q01DX009 (ip), vehicle: saline) was 141 % of control, the T/C (dose: 10.0 mg/kg/injection, schedule: Q04DX003 (ip), vehicle: saline) was 145 % of control and the T/C (dose: 14.06 mg/kg/injection, schedule: Q01DX009 (ip), vehicle: saline) was 140 and 141 % of control. For the same compound, the T/C (dose: 21.0 mg/kg/injection, schedule: Q01DX009 (ip), vehicle: saline) was 140 % of control, the T/C (dose: 25.0 mg/kg/injection, schedule: Q04DX003 (ip), vehicle: saline) was 140 % of control and the T/C (dose: 28.12 mg/kg/injection, schedule: Q01DX009 (ip), vehicle: saline) was 125 % of control [5 of 6 alive]. The T/C [7] was 140 % of control, the T/C [8] was 131 % of control and the survivor count (dose: 112.5 mg/kg/injection, schedule: Q01DX009 (ip), vehicle: saline) was 6 of 6. For the same compound, the survivor count (dose: 225.0 mg/kg/injection, schedule: Q01DX009 (ip), vehicle: saline) was 6 of 6, the survivor count (dose: 225.0 mg/kg/injection, schedule: Q04DX003 (ip), vehicle: saline) was 6 of 6 and the survivor count (dose: 335.0 mg/kg/injection, schedule: Q04DX003 (ip), vehicle: saline) was 6 of 6.

For O=S(=O)(O)c1ccc2c(N=Nc3ccccc3[As](=O)(O)O)c(O)c(S(=O)(=O)O)cc2c1, the T/C (dose: 88.0 mg/kg/injection, schedule: Q01DX009 (ip), vehicle: saline with Tween-80) was 125 % of control, the T/C (dose: 132.0 mg/kg/injection, schedule: Q01DX009 (ip), vehicle: saline with Tween-80) was 140 % of control and the T/C (dose: 200.0 mg/kg/injection, schedule: Q01DX009 (ip), vehicle: saline with Tween-80) was 145 % of control.

For Cc1ccc2ccccc2c1Cc1c(C=O)[nH]c(=S)[nH]c1=O, the T/C (dose: 400.0 mg/kg/injection, schedule: Q04DX003 (ip), vehicle: saline with Tween-80) was 127 % of control.

In the case of COc1cc2c3cc1Oc1c(OC)c(OC)cc4c1C(Cc1cc5c(c(c1)Oc1ccc(cc1)CC3N(C)CC2)OCO5)N(C)CC4 (stereo unspecified), the survivor count (dose: 10.0 mg/kg/injection, schedule: Q01DX010 (ip), vehicle: saline) is reported as 6 of 6.

For CCOC(=O)/C(C#N)=C/N=c1ccccn1C, the survivor count (dose: 100.0 mg/kg/injection, schedule: Q04DX002 (ip), vehicle: saline with Tween-80) was 0 of 6, the survivor count (dose: 200.0 mg/kg/injection, schedule: Q04DX002 (ip), vehicle: saline with Tween-80) was 0 of 6 and the survivor count (dose: 400.0 mg/kg/injection, schedule: Q04DX002 (ip), vehicle: saline with Tween-80) was 0 of 6.

C=C(C)C12OC3(c4ccccc4)OC1C1C4OC4(CO)C(O)C4(O)C(=O)C(C)=CC4C1(O3)C(C)C2O (stereo unspecified) was tested, and the survivor count (dose: 100.0 micrograms/kg/injection, schedule: Q01DX009 (ip), vehicle: saline + alcohol) was 6 of 6 and the T/C (dose: 400.0 micrograms/kg/injection, schedule: Q01DX009 (ip), vehicle: saline + alcohol) was 131 % of control.

OCC(I)C(CO)[n+]1ccccc1 (stereo unspecified) was tested, and the survivor count [2] was 3 of 6.

In the case of COc1ccc2nc(C)c(COC(C)=O)c(Cl)c2c1, the survivor count [4] is reported as 6 of 6.

With N=C(N)SCc1ccc(CSC(=N)N)s1 the survivor count [2] was 1 of 6.

NC(CSCc1ccccc1)CSCc1ccccc1 was tested, and the T/C (dose: 6.25 mg/kg/injection, schedule: Q04DX003 (ip), vehicle: saline) was 149 % of control, the survivor count [7] was 3 of 6 and the survivor count [8] was 4 of 6. The survivor count (dose: 200.0 mg/kg/injection, schedule: Q01DX009 (ip), vehicle: saline) was 3 of 6, the survivor count (dose: 200.0 mg/kg/injection, schedule: Q04DX003 (ip), vehicle: saline) was 3 of 6 and the survivor count (dose: 400.0 mg/kg/injection, schedule: Q04DX003 (ip), vehicle: saline) was 2 of 6.

For O=C(CC(=O)C(F)(F)F)c1csc2ccccc12, the T/C (dose: 100.0 mg/kg/injection, schedule: Q01DX009 (ip), vehicle: gum acacia) was 125 and 126 % of control, the T/C [6] was 125 % of control and the survivor count [5] was 2 of 6. The survivor count (dose: 170.0 mg/kg/injection, schedule: Q01DX009 (ip), vehicle: Klucel (hydroxypropylcellulose) (HPC)) was 0 of 6, the survivor count (dose: 200.0 mg/kg/injection, schedule: Q04DX003 (ip), vehicle: gum acacia) was 0 of 6 and the survivor count (dose: 400.0 mg/kg/injection, schedule: Q04DX003 (ip), vehicle: gum acacia) was 1 of 6.

In the case of COC(C/C=C\C=C\CC/C=C/CC(C)/C=C/C(=C\C(=O)O)CC(=O)O)/C(C)=C\C=C(/C)C(=O)O (stereo unspecified), the T/C (dose: 4.0 mg/kg/injection, schedule: Q04DX003 (ip), vehicle: saline) is reported as 125 % of control.

For N#Cc1ccc(C(=O)CC(O)(C(F)(F)F)C(F)(F)F)cc1, the T/C [1] was 130 % of control.

Nc1nc(N)c(N=O)c(Nc2ccc(I)cc2)n1 was tested, and the survivor count [9] was 2 of 6.

COc1cc(Cl)c(CC(=O)c2c[nH]c3ccccc23)cc1OC was tested, and the survivor count [6] was 5 of 6 and the survivor count [9] was 6 of 6.

COc1cc(N2CCOCC2)ccc1N was tested, and the T/C (dose: 3.13 mg/kg/injection, schedule: Q01DX009 (ip), vehicle: saline) was 132 % of control, the survivor count (dose: 12.5 mg/kg/injection, schedule: Q01DX009 (ip), vehicle: saline) was 0 of 3 and the survivor count (dose: 25.0 mg/kg/injection, schedule: Q01DX009 (ip), vehicle: saline) was 0 of 3. The T/C (dose: 44.0 mg/kg/injection, schedule: Q04DX003 (ip), vehicle: saline) was 130 % of control, the survivor count [2] was 0 of 3 and the T/C [7] was 136 % of control. For the same compound, the T/C (dose: 67.0 mg/kg/injection, schedule: Q04DX003 (ip), vehicle: saline) was 143 % of control, the survivor count [4] was 0 of 3 and the T/C [8] was 129 and 140 % of control [5 of 6 alive]. The survivor count [8] was 1 of 6 and the survivor count (dose: 150.0 mg/kg/injection, schedule: Q04DX003 (ip), vehicle: saline) was 1 of 6 and 3 of 6.
